Our source for the binding signal values is publication PMC7862700.

Amino acid sequences for entries named in this document (tags omitted). A change or cut given only in a name is not applied to a line headed by its entry.
UniProt Q00613: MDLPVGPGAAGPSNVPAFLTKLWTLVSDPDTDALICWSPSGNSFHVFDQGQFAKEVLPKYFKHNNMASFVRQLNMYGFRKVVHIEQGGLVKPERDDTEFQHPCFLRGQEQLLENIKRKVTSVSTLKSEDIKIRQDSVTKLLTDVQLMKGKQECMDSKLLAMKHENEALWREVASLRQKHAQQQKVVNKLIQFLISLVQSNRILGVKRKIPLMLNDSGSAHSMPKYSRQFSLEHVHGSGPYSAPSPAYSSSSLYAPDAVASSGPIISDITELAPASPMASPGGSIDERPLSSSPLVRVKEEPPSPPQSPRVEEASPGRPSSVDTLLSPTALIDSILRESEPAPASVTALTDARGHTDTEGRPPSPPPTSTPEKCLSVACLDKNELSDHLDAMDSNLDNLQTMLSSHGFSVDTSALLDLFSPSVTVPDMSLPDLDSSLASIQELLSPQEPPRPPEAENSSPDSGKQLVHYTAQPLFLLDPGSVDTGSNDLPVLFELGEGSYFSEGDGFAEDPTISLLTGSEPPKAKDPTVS

For one test, the target named is HSF1 (UniProt Q00613). Put plainly: DAPPL (digital affinity profiling via proximity ligation, sequencing). Conditions: 10 mM Tris-HCl pH 7.5, 50 mM NaCl, 1 mM DTT, 4% glycerol, room temperature, 30 min; GST-TFs on glutathione beads, 16-mer random dsDNA library, 0.1% …; high values mean tight binding; double strand, one strand shown; scale: fold enrichment (6-mer frequency, TF over GST control).

In a further test the target is T1, ELF2 (UniProt Q15723).
T1 sequence: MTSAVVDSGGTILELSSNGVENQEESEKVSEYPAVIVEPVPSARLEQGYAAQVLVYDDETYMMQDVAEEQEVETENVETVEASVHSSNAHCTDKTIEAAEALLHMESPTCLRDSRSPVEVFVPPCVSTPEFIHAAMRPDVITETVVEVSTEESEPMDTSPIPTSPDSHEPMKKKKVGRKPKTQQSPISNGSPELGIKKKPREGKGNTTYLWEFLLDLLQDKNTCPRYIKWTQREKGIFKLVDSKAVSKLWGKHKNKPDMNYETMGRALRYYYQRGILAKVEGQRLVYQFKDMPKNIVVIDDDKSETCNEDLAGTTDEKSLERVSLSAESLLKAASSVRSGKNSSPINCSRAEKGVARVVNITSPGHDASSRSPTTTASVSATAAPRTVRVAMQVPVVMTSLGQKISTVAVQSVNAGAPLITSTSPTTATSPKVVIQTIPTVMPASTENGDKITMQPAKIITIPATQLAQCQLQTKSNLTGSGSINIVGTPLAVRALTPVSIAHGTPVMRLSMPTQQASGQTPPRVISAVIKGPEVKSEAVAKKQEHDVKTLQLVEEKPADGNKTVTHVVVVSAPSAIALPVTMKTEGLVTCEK
Described as above. The conditions noted are these: 10 mM Tris-HCl pH 7.5, 50 mM NaCl, 1 mM DTT, 4% glycerol, room temperature, 30 min; GST-TFs on glutathione beads, 16-mer random dsDNA library, 0.1% …; high values mean tight binding; double strand, one strand shown; scale: fold enrichment (6-mer frequency, TF over GST control).

Only a part is listed here, and it is no random draw. For part of these data: At the low end of the ranking, values are background and their order means little. The list shows a part of the results. For part of these data: The source does not settle which construct or isoform was used.

Regarding TGAGCT, the binding signal with HSF1 was found to be 1.06; with ELF2, 0.988.

Take AACGGA: the binding signal in the test with HSF1 was 0.723; with ELF2, 1.13.

Take CATAAA: the binding signal with HSF1 turned out to be 1.07; with ELF2, 0.986.

Take TCACGG: the binding signal is 0.861 with HSF1 and 1.09 in the test with ELF2.

Regarding AAGTTC, the binding signal in the test with HSF1 came to 1.94; with ELF2, 1.6.

On to AATTAT, for which the binding signal was determined as 1.55 with HSF1 and 1.28 with ELF2.

With ACAGGA, the binding signal with HSF1 was determined as 0.69; with ELF2 it was 1.38.

TCTGAC: the binding signal was 1.07 with HSF1 and 1.15 in the test with ELF2.

CCACAG: the values for the binding signal with HSF1 and with ELF2 were 0.828 and 0.891, respectively.

Regarding ACCGCC, the results for the binding signal in the test with HSF1 and with ELF2 were 0.977 and 1.19, respectively.

Turning to GCTAAA, the values for the binding signal with HSF1 and with ELF2 were 1.17 and 1.06, respectively.

On to TCCGTT, for which the binding signal amounted to 0.999 with HSF1 and 1.53 with ELF2.

Consider CGCTGT, for which the binding signal with HSF1 worked out at 0.715; in the test with ELF2 it was 0.952.

In the case of GGCACC, the binding signal in the test with HSF1 stood at 0.582; with ELF2, 0.752.

On to CTAGCA, for which the values for the binding signal with HSF1 and with ELF2 were 2.11 and 1.18, respectively.

In the case of GACATG, the results for the binding signal with HSF1 and with ELF2 were 0.722 and 0.941, respectively.

Regarding TCAGTA, the figures for the binding signal with HSF1 and in the test with ELF2 were 0.921 and 0.927, respectively.

TCAATG: the values for the binding signal in the test with HSF1 and with ELF2 were 0.942 and 0.987, respectively.

Turning to CAAAGA, the binding signal with HSF1 came out at 1.1; in the test with ELF2 it was 0.916.

In the case of AATTTG, the binding signal in the test with HSF1 came to 1.26; with ELF2, 1.24.

For CCAACA, the results for the binding signal in the test with HSF1 and in the test with ELF2 were 0.836 and 1.02, respectively.

With GTCCTC, the binding signal with HSF1 came to 0.924; in the test with ELF2 it was 1.14.

As to GGTTCA, the binding signal in the test with HSF1 stood at 0.916; with ELF2, 1.08.

On to CTCGCG, for which the binding signal amounted to 1.55 with HSF1 and 1.35 in the test with ELF2.

On to AAAGCA, for which the binding signal was found to be 1.04 with HSF1 and 1.06 with ELF2.

Consider CCTCAA, for which the binding signal with HSF1 was 1.2; with ELF2, 1.35.

For the sequence AAGTAG, the binding signal turned out to be 1.11 with HSF1 and 1.38 in the test with ELF2.

For TGATAT, the binding signal was determined as 1.01 with HSF1 and 1.09 in the test with ELF2.

For GACTTC, the binding signal with HSF1 turned out to be 1.23; with ELF2 it was 3.27.

Consider AGGCTA, for which the figures for the binding signal with HSF1 and in the test with ELF2 were 0.985 and 0.907, respectively.

For the sequence ATGCGT, the binding signal stood at 0.909 in the test with HSF1 and 0.995 with ELF2.

With GCCTGT, the binding signal amounted to 0.741 with HSF1 and 0.864 with ELF2.

As for GCCGAA, the binding signal in the test with HSF1 was found to be 1.14; in the test with ELF2, 0.937.

Take TACATA: the binding signal with HSF1 is 1.15; with ELF2 it was 1.18.

In the case of TACGGC, the results for the binding signal with HSF1 and in the test with ELF2 were 1.02 and 1.13, respectively.

For the sequence GCTTGG, the binding signal with HSF1 was 0.959; in the test with ELF2, 0.946.

With AAACTG, the binding signal in the test with HSF1 was determined as 1.01; in the test with ELF2 it was 1.09.

For AAAGTT, the results for the binding signal with HSF1 and with ELF2 were 1.43 and 1.07, respectively.

On to CGGCTG, for which the figures for the binding signal in the test with HSF1 and in the test with ELF2 were 0.846 and 0.965, respectively.

As for ACCTTG, the binding signal with HSF1 came out at 0.983; in the test with ELF2, 1.18.

Consider ATTTGT, for which the binding signal was 1.33 in the test with HSF1 and 1.31 with ELF2.

GTTATG: the binding signal with HSF1 came out at 0.881; in the test with ELF2, 1.06.

With TCTCCA, the binding signal in the test with HSF1 came to 1.91; with ELF2 it was 1.39.

In the case of GAAGTC, the binding signal in the test with HSF1 was 0.649; with ELF2, 1.47.

As for ATAGGC, the binding signal with HSF1 turned out to be 0.932; with ELF2, 0.973.

In the case of ACGCCA, the binding signal with HSF1 worked out at 0.724; in the test with ELF2 it was 0.871.

For the sequence ACGCTC, the binding signal with HSF1 and with ELF2 was 0.943 in each case.

As to CGCCCC, the results for the binding signal with HSF1 and with ELF2 were 0.889 and 1.09, respectively.

Consider CCGGCC, for which the binding signal with HSF1 was found to be 0.767; with ELF2 it was 1.16.

For CTTTCG, the values for the binding signal with HSF1 and with ELF2 were 1.65 and 1.22, respectively.

For ATTTCG, the binding signal was determined as 1.63 with HSF1 and 1.24 with ELF2.

On to CCGAAC, for which the binding signal with HSF1 was determined as 1.54; with ELF2, 1.17.

Regarding TGTACG, the binding signal in the test with HSF1 was 1.01; in the test with ELF2, 1.12.

As to GCAAAC, the binding signal in the test with HSF1 amounted to 0.802; with ELF2 it was 0.952.

With TTAGGA, the binding signal in the test with HSF1 was 1.28; with ELF2, 0.901.

For GAAGTG, the binding signal in the test with HSF1 amounted to 0.692; with ELF2 it was 2.08.

With ATCCAT, the binding signal with HSF1 was found to be 1.23; in the test with ELF2, 1.1.
